± gives the standard deviation of the averaged measurements. Most entries show no effect beyond the scatter of the controls.
Tests used:
Test in all cases: level (log10 ratio to DMSO vehicle control); higher = higher biomarker level / cell amount than vehicle control
[1] = compound: C=C(C)C(=O)OCCC(F)(F)C(F)(F)C(F)(F)C(F)(F)C(F)(C(F)(F)F)C(F)(F)F [(Perfluoro-5-methylhexyl)ethyl 2-methylprop-2-enoate]; settings: in DMSO
Description: (§1)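 BioMAP Diversity Plus panel of 12 human primary cell co-culture systems (3C, 4H, LPS, SAg, BT, BF4T, BE3C, CASM3C, HDF3CGF, KF3CT, MyoF, Mphg). Compounds were added 1 h before stimulation and left for 24 h (MyoF 48 h; BT 72 h for soluble read-outs or 6 d for IgG). Biomarkers were read by ELISA, cytotoxicity by SRB, PBMC viability and proliferation by Alamar Blue. Each well value was divided by the mean of 8 DMSO control wells on the same plate and log10 transformed; duplicate blinded samples were tested at 4 concentrations.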

[2] = compound: C=C(C)C(=O)OCCC(F)(F)C(F)(F)C(F)(F)C(F)(F)C(F)(F)C(F)(F)C(F)(F)C(F)(F)F [8:2 Fluorotelomer methacrylate]; settings: in DMSO
Description: as §1

[3] = compound: COC(=O)CCC(F)(F)C(F)(F)C(F)(F)C(F)(F)F [Methyl 2H,2H,3H,3H-perfluoroheptanoate]; settings: 2200 nM; in DMSO
Description: as §1

[4] = compound: FC(F)(F)C(F)(F)C(F)(F)C(F)(F)C(F)(F)CCI [1-Iodo-1H,1H,2H,2H-perfluoroheptane]; settings: 2200 nM; in DMSO
Description: as §1

Octafluoroadipamide = compound: NC(=O)C(F)(F)C(F)(F)C(F)(F)C(F)(F)C(N)=O [Octafluoroadipamide]; settings: 2200 nM; in DMSO
Description: as §1

Nonafluoropentanamide = compound: NC(=O)C(F)(F)C(F)(F)C(F)(F)C(F)(F)F [Nonafluoropentanamide]; settings: 2200 nM; in DMSO
Description: as §1

[5] = compound: NS(=O)(=O)C(F)(F)C(F)(F)C(F)(F)C(F)(F)C(F)(F)C(F)(F)F [Perfluorohexanesulfonamide]; settings: 2200 nM; in DMSO
Description: as §1

Tetrafluorosuccinic acid = compound: O=C(O)C(F)(F)C(F)(F)C(=O)O [Tetrafluorosuccinic acid]; settings: 2200 nM; in DMSO
Description: as §1

[6] = compound: O=C(O)C(F)(F)C(F)(F)C(F)(F)C(F)(F)C(F)(F)C(F)(F)C(F)(F)C(F)(F)Cl [9-Chloro-perfluorononanoic acid]; settings: in DMSO
Description: as §1

[7] = compound: O=C(O)CCC(F)(F)C(F)(F)C(F)(F)C(F)(F)C(F)(F)F [2H,2H,3H,3H-Perfluorooctanoic acid]; settings: 2200 nM; in DMSO
Description: as §1

[8] = compound: O=S(=O)(O)C(F)(F)C(F)(F)OC(F)(F)C(F)(F)F [Perfluoro(2-ethoxyethane)sulfonic acid]; settings: 2200 nM; in DMSO
Description: as §1

[9] = compound: O=S(=O)(O)CCC(F)(F)C(F)(F)C(F)(F)C(F)(F)C(F)(F)C(F)(F)F [6:2 Fluorotelomer sulfonic acid]; settings: in DMSO
Description: as §1

Perfluoropinacol = compound: OC(C(F)(F)F)(C(F)(F)F)C(O)(C(F)(F)F)C(F)(F)F [Perfluoropinacol]; settings: in DMSO
Description: as §1

[10] = compound: OCCC(F)(F)C(F)(F)C(F)(F)C(F)(F)F [4:2 Fluorotelomer alcohol]; settings: 2200 nM; in DMSO
Description: as §1

Test System | level (log10) ([1]; 740 nM) | level (log10) ([1]; 2200 nM) | level (log10) ([1]; 6700 nM) | level (log10) ([1]; 20000 nM) | level (log10) ([2]; 740 nM) | level (log10) ([2]; 2200 nM) | level (log10) [3] | level (log10) [4] | level (log10) (Octafluoroadipamide) | level (log10) (Nonafluoropentanamide) | level (log10) [5] | level (log10) (Tetrafluorosuccinic acid) | level (log10) ([6]; 2200 nM) | level (log10) ([6]; 6700 nM) | level (log10) ([6]; 20000 nM) | level (log10) [7] | level (log10) [8] | level (log10) ([9]; 2200 nM) | level (log10) ([9]; 6700 nM) | level (log10) ([9]; 20000 nM) | level (log10) ([9]; 60000 nM) | level (log10) (Perfluoropinacol; 2200 nM) | level (log10) (Perfluoropinacol; 6700 nM) | level (log10) (Perfluoropinacol; 20000 nM) | level (log10) [10]
4H:CD87/uPAR | -0.001 ± 0.04 | -0.0005 ± 0.0092 | 0.0115 ± 0.037 | 0 ± 0.0071 | -0.02 ± 0.058 | -0.0375 ± 0.056 | -0.003 ± 0.0099 | 0.0275 ± 0.022 | -0.022 ± 0.04 | 0.0135 ± 0.022 | 0 ± 0.045 | -0.034 ± 0.072 | 0.0145 ± 0.05 | 0.0055 ± 0.033 | 0.002 ± 0.0099 | 0.0095 ± 0.021 | 0.0145 ± 0.028 | -0.0115 ± 0.021 | -0.0005 ± 0.029 | 0.001 ± 0.031 | -0.002 ± 0.04 | -0.0385 ± 0.021 | -0.117 ± 0.022 | -0.226 ± 0.029 | 0.0015 ± 0.025
HDF3CGF:MMP-1 | 0.002 ± 0.024 | 0.013 ± 0.013 | 0.002 ± 0.0085 | 0.008 ± 0.018 | 0.0055 ± 0.019 | 0.01 ± 0.0014 | -0.0075 ± 0.0078 | 0.0225 ± 0.00071 | 0.002 ± 0.0057 | 0.005 ± 0.0014 | -0.0155 ± 0.021 | 0.0205 ± 0.013 | -0.058 ± 0.016 | -0.0875 ± 0.005 | -0.118 ± 0.011 | -0.026 ± 0.016 | -0.0185 ± 0.03 | -0.0075 ± 0.043 | -0.015 ± 0.027 | -0.039 ± 0.03 | -0.036 ± 0.064 | 0.004 ± 0.042 | 0.024 ± 0.023 | 0.017 ± 0.014 | -0.02 ± 0.018
HDF3CGF:Collagen I | 0.043 ± 0.0071 | -0.003 ± 0.085 | 0.0115 ± 0.067 | 0.034 ± 0.092 | -0.0035 ± 0.0021 | -0.0245 ± 0.044 | 0.0585 ± 0.029 | 0.0435 ± 0.069 | -0.0055 ± 0.03 | 0.035 ± 0.065 | 0.0155 ± 0.04 | 0.0015 ± 0.063 | 0.002 ± 0.089 | -0.0595 ± 0.005 | -0.151 ± 0.0042 | 0.045 ± 0.013 | -0.0075 ± 0.069 | 0.013 ± 0.013 | -0.031 ± 0.095 | -0.007 ± 0.086 | 0.056 ± 0.11 | 0.022 ± 0.1 | -0.0205 ± 0.0092 | -0.0685 ± 0.015 | 0.0725 ± 0.042
SAg:SRB | 0.005 ± 0.016 | -0.0005 ± 0.0035 | -0.001 ± 0.0042 | -0.0105 ± 0.0078 | 0.0095 ± 0.0064 | -0.0065 ± 0.0092 | 0.012 ± 0.018 | 0.0015 ± 0.012 | -0.006 ± 0.0057 | 0.0005 ± 0.019 | -0.003 ± 0.0028 | -0.003 ± 0.0014 | 0.011 ± 0.0042 | -0.003 ± 0.0099 | -0.0105 ± 0.005 | -0.0005 ± 0.03 | 0.004 ± 0.0028 | 0.009 ± 0.021 | -0.012 ± 0.0057 | -0.0045 ± 0.0021 | -0.0045 ± 0.021 | -0.0065 ± 0.011 | -0.0285 ± 0.0078 | -0.123 ± 0.0021 | -0.0075 ± 0.0021
MyoF:CXCL8/IL-8 | -0.012 ± 0.024 | -0.0395 ± 0.011 | -0.011 ± 0.011 | -0.0255 ± 0.0064 | 0.012 ± 0.037 | 0.002 ± 0.027 | 0 ± 0.047 | -0.0165 ± 0.0064 | 0.0185 ± 0.047 | -0.0145 ± 0.0021 | 0.059 ± 0.054 | -0.0115 ± 0.033 | -0.004 ± 0.023 | 0.0025 ± 0.015 | -0.06 ± 0.0057 | -0.0635 ± 0.025 | 0.0095 ± 0.087 | -0.0515 ± 0.0064 | 0.007 ± 0.031 | 0 ± 0.018 | 0.016 ± 0.021 | 0.0135 ± 0.022 | 0.0295 ± 0.005 | 0.0265 ± 0.012 | -0.0065 ± 0.019
CASM3C:M-CSF | 0.012 ± 0.064 | -0.022 ± 0.0085 | -0.009 ± 0.0085 | 0.0195 ± 0.036 | 0.0025 ± 0.015 | -0.0215 ± 0.018 | 0.023 ± 0.031 | 0.014 ± 0.0028 | 0.016 ± 0.048 | 0.015 ± 0.027 | 0.0205 ± 0.049 | 0.0125 ± 0.036 | 0.0025 ± 0.035 | -0.0235 ± 0.0035 | -0.0315 ± 0.011 | 0.015 ± 0.052 | 0.0055 ± 0.042 | 0.009 ± 0.047 | -0.011 ± 0.044 | -0.002 ± 0.0085 | 0.002 ± 0.037 | 0.03 ± 0.03 | 0.0505 ± 0.0021 | 0.0315 ± 0.0092 | -0.012 ± 0.014
HDF3CGF:CD106/VCAM-1 | 0.0015 ± 0.0021 | 0.017 ± 0.011 | 0.02 ± 0.023 | -0.0275 ± 0.011 | -0.047 ± 0.028 | -0.023 ± 0.034 | -0.046 ± 0.013 | -0.029 ± 0.038 | -0.0225 ± 0.029 | -0.009 ± 0.0057 | -0.0295 ± 0.069 | 0.029 ± 0.048 | -0.0075 ± 0.043 | -0.0005 ± 0.074 | -0.067 ± 0.096 | 0.027 ± 0.11 | -0.0015 ± 0.037 | 0.021 ± 0.1 | 0.034 ± 0.11 | 0.034 ± 0.093 | 0.0135 ± 0.064 | -0.0455 ± 0.1 | -0.089 ± 0.037 | -0.228 ± 0.0014 | -0.043 ± 0.03
HDF3CGF:Proliferation 72hr | 0.003 ± 0.0028 | 0.0015 ± 0.0064 | -0.015 ± 0.0028 | -0.014 | -0.019 ± 0.052 | -0.011 ± 0.064 | -0.032 ± 0.016 | -0.0305 ± 0.022 | -0.0025 ± 0.035 | -0.011 ± 0.014 | 0.048 ± 0.021 | -0.047 ± 0.18 | 0.0855 ± 0.057 | 0.101 ± 0.022 | -0.081 ± 0.054 | -0.044 ± 0.0014 | -0.053 ± 0.014 | -0.004 ± 0.023 | 0.0015 ± 0.019 | 0.0725 ± 0.03 | 0.0405 ± 0.036 | -0.0495 ± 0.059 | -0.183 ± 0.044 | -0.39 ± 0.05 | -0.056 ± 0.011
HDF3CGF:Collagen III | -0.0095 ± 0.0078 | 0.002 ± 0.011 | -0.0195 ± 0.05 | 0.0105 ± 0.05 | -0.0125 ± 0.0064 | -0.039 ± 0.068 | -0.0215 ± 0.036 | 0.002 ± 0.024 | 0.023 ± 0.068 | 0.021 ± 0.057 | 0.0385 ± 0.046 | -0.064 ± 0.071 | -0.0655 ± 0.064 | -0.0835 ± 0.046 | -0.235 ± 0.061 | -0.0705 ± 0.019 | -0.056 ± 0.13 | -0.0495 ± 0.023 | -0.0555 ± 0.015 | -0.0115 ± 0.019 | 0.03 ± 0.093 | 0.008 ± 0.023 | 0.0175 ± 0.0078 | -0.0845 ± 0.0064 | -0.04 ± 0.1
HDF3CGF:TIMP-1 | -0.0015 ± 0.0064 | -0.024 ± 0.016 | -0.035 ± 0.0071 | -0.0345 ± 0.0078 | -0.0035 ± 0.061 | 0.003 ± 0.038 | -0.0055 ± 0.03 | -0.0195 ± 0.00071 | 0.036 ± 0.041 | 0.0035 ± 0.039 | -0.0175 ± 0.011 | 0.0075 ± 0.023 | -0.0065 ± 0.047 | -0.028 ± 0.027 | -0.0105 ± 0.056 | -0.015 ± 0.095 | 0.0295 ± 0.042 | -0.0275 ± 0.074 | 0.0225 ± 0.08 | -0.0045 ± 0.076 | 0.0175 ± 0.13 | 0.004 ± 0.0099 | 0.015 ± 0.027 | 0.0205 ± 0.032 | -0.0175 ± 0.018
